Assay [1] deals with FAT1 (endogenous wild-type, HUVECs) (human (endogenous in HUVECs)) (UniProt Q14517). The assay can be described thus: co-IP; endogenous FAT1 immunoprecipitated with anti-FAT1 antibody from HUVEC lysates (150 mM NaCl, 25 mM Tris-HCl pH 7.4, 1 mM EDTA, 1% NP-40, 5% glycerol), overnight at 4 °C, A/G-Sepharose; cells transfected with control siRNA or siRNA against FAT1 or MIB2; IgG as control.

Protein sequences, listed by entry. Tags and fused reporters are not part of them.
UniProt Q9GZV5: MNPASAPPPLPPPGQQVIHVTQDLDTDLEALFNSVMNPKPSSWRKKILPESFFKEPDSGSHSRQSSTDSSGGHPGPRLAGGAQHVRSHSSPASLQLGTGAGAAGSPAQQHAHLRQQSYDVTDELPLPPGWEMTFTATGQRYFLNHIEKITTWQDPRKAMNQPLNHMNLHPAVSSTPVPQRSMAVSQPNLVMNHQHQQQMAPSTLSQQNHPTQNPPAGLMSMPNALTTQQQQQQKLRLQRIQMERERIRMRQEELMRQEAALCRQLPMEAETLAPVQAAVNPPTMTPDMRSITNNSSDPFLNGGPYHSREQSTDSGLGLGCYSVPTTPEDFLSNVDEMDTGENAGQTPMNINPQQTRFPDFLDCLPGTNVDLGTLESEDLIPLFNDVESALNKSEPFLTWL
UniProt P46937: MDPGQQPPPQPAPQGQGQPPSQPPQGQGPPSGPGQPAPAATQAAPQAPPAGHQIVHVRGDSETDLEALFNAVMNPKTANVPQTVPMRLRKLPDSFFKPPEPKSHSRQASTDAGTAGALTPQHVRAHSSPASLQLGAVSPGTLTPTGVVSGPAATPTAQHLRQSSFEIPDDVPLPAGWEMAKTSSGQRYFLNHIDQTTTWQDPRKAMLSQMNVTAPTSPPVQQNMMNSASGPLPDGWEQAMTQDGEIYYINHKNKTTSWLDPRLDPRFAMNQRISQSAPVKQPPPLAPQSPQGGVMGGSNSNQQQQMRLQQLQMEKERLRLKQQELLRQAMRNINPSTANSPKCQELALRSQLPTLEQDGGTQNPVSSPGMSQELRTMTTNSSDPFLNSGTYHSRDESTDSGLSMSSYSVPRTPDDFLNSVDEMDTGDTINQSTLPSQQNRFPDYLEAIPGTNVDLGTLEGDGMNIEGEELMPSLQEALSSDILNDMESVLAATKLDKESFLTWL

Assay [2] addresses T1, MIB2 fused to maltose binding protein (UniProt Q96AX9).
T1 sequence: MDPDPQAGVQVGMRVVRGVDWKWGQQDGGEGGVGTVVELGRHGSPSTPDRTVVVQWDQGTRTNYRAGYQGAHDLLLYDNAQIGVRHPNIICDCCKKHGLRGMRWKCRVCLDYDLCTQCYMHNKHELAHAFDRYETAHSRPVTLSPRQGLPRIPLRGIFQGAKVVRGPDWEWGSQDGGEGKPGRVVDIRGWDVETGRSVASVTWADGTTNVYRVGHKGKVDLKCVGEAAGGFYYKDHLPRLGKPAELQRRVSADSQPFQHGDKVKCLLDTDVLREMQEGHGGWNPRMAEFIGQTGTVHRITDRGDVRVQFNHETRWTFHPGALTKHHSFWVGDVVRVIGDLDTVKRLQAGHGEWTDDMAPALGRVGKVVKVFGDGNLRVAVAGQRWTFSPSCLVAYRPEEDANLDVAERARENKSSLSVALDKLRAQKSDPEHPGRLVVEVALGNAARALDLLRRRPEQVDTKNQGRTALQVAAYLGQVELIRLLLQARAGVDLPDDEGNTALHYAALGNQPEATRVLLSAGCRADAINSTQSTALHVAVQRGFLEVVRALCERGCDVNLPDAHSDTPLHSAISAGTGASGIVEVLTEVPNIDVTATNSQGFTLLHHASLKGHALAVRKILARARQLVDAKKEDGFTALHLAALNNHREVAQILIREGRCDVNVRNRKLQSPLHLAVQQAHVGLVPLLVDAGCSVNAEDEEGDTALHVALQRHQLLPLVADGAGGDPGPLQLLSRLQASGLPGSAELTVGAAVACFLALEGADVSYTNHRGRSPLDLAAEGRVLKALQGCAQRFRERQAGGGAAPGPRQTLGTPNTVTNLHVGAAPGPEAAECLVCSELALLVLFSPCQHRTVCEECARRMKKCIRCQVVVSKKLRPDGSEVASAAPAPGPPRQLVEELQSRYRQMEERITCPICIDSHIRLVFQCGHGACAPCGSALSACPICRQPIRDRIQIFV
The assay can be described thus: pull-down; MBP pull-down: MBP-MIB2 as bait with one prey (FAT1^ICD-GST or His-tagged YAP), 10 µM each in PBS, 1 h at room temperature, then 2 h at 4 °C with MBP binding beads; eluted with 10 mM maltose; immunoblot; both purified. Background: Immunoblotting shows a protein as a band on a membrane.

These are yes or no findings as the source states them, for the method shown. For part of these data: In cells and extracts the contact can be indirect. Some results given as binding are weak or reduced against the parent protein; the word gives no strength. For part of these data: Where a sequence is shown, tags or fusion partners need not be part of it.

Turning to “TAZ (endogenous, HUVECs) (from UniProt Q9GZV5 1-400)”, the binding result in assay [1] is “binds”.

Turning to “YAP (endogenous, HUVECs) (from UniProt P46937 1-504)”, the binding entry in assay [1] is listed as “binds”.

B1: FAT1 intracellular domain fused with glutathion-S-transferase (domain or fragment, UniProt Q14517 4203-4588)
chain: RKMISRKKKHQAEPKDKHLGPATAFLQRPYFDSKLNKNIYSDIPPQVPVRPISYTPSIPSDSRNNLDRNSFEGSAIPEHPEFSTFNPESVHGHRKAVAVCSVAPNLPPPPPSNSPSDSDSIQKPSWDFDYDTKVVDLDPCLSKKPLEEKPSQPYSARESLSEVQSLSSFQSESCDDNGYHWDTSDWMPSVPLPDIQEFPNYEVIDEQTPLYSADPNAIDTDYYPGGYDIESDFPPPPEDFPAADELPPLPPEFSNQFESIHPPRDMPAAGSLGSSSRNRQRFNLNQYLPNFYPLDMSEPQTKGTGENSTCREPHAPYPPGYQRHFEAPAVESMPMSVYASTASCSDVSACCEVESEVMMSDYESGDDGHFEEVTIPPLDSQQHTEV
As to B1, the binding entry in assay [2] is given as “binds”.

The values are drawn from article PMC10082778.
